1 molecule from publication PMC6137978 can be followed below.

No constants are given. Whether binding was seen depends on the method and setting.

The target in this test is T1, Gnp4/LAX2, full length, two-hybrid bait (rice (Oryza sativa)), G3XKQ9.
T1 chain: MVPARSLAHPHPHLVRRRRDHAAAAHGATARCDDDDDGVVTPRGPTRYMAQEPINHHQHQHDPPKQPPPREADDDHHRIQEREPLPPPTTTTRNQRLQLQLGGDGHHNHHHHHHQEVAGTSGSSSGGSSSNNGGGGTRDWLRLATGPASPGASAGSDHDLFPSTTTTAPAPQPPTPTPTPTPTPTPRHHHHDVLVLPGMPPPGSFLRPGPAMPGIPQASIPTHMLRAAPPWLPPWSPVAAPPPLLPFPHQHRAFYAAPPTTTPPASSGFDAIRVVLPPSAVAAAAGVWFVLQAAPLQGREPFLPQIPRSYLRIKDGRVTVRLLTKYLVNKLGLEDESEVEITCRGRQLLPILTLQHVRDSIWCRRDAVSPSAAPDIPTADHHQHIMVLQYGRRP
In words: two-hybrid; yeast AH109; Gnp4 full length or truncated in pBGKT7 as bait, pGADT7 preys; growth on SD/-T-L-H-A; library screen and test of constructs. Conditions: remark: other sources report otherwise.

B1: LAX1, Q7XAQ6 1-215 (protein)
chain: MHDPRGFPIHPQPYHLHPTAGGLGEGRMRGGGRRRPGAKLSTDPQSVAARERRHRISDRFRVLRSLVPGGSKMDTVSMLEQAIHYVKFLKAQVTLHQAALVQHEEGCQHADVAAAFSAADADLALELNHRHGGAGDDDAGMTTLEMAPMQEAVGYGDGPAHQMMQQALDPAGQLMMGGAHQLPPLPCCVFVQETDPSCYSVCNVHGEESGAQGSY
In the case of B1, the binding entry is on record as “no binding”.
